This assay has as its system HEK293A TEAD-LUC reporter. Briefly: TEAD-luciferase reporter activity (YAP activation), robust Z score vs plate; higher = stronger YAP/TEAD activation. The conditions noted are these: 24 h. Background: A reporter such as luciferase makes a cellular process visible.

Some of the results follow. This data set is noisy: repeats of one test often differ as much as different tests do.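 Human kidney-derived cells stably carry a construct in which eight TEAD-binding elements drive luciferase, measured by luminescence in a drug-repurposing library screen. A hit is any compound whose signal exceeds the plate mean by more than five robust Z scores.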

The record followed here is the supplement of paper PMC10735217.

Take `O=C1COCC2=C1C(c1ccc(F)c(I)c1)C1=C(COCC1=O)N2`: the TEAD-luciferase reporter activity was inactive: -0.67 (compound concentration: 200 nM), inactive: -1.12 (compound concentration: 2 uM) and inactive: 2.63 (compound concentration: 10 uM).
The corresponding values for `CCCCc1nc2ccc(NC(=O)NC3CCCCC3)cc2n1Cc1ccc(-c2ccccc2C(=O)O)cc1` are inactive: -2.68, inactive: 0.725 and inactive: 0.763.
As to `Nc1nc(=O)n([C@H]2CC[C@@H](CO)O2)cc1F`, the TEAD-luciferase reporter activity was inactive: -0.443 (compound concentration: 200 nM), inactive: -1.7 (compound concentration: 2 uM) and inactive: -1.56 (compound concentration: 10 uM).
On the same counts, the results for `CCOC(=O)[C@H](CCc1ccccc1)N[C@H]1CCCN2CCC[C@@H](C(=O)O)N2C1=O` [cilazapril] are inactive: -0.331, inactive: 0.128 and inactive: 0.427.
For the molecule `O=c1oc2cc(O)ccc2c(Cc2ccc(OCCN3CCCCC3)cc2)c1-c1ccccc1`, the TEAD-luciferase reporter activity is inactive: -1.59 (compound concentration: 200 nM), inactive: -0.925 (compound concentration: 2 uM) and inactive: 0.171 (compound concentration: 10 uM).
The corresponding values for `Cc1cc2c(F)c(Oc3ncnn4cc(OC[C@@H](C)O)c(C)c34)ccc2[nH]1` [Brivanib] are inactive: -1.44, inactive: -2.43 and inactive: -1.25.
Consider `O=C(O)CNC(=O)C(CS)Cc1ccccc1` (stereo not given), for which the TEAD-luciferase reporter activity was inactive: -0.396 (compound concentration: 200 nM) and inactive: -1.06 (compound concentration: 10 uM).
Turning to `O=C(O)CNC(=O)C(CS)Cc1ccccc1` (stereo not given) [thiorphan], under “compound concentration: 2 uM”, the TEAD-luciferase reporter activity is inactive: 0.63.
In the case of `CC1(C)OC(=O)NC1=O`, for the setting “compound concentration: 2 uM”, the TEAD-luciferase reporter activity was inactive: -0.777.
Take `CC1(C)OC(=O)NC1=O` [5,5-Dimethyloxazolidine-2,4-dione]: the TEAD-luciferase reporter activity reads like this: (compound concentration: 200 nM) inactive: 0.203; (compound concentration: 10 uM) inactive: 2.98.
On to `CCC(C)NCC(O)COc1ccccc1C(C)CC` (stereo not given), for which the TEAD-luciferase reporter activity was inactive: -1.96 (compound concentration: 200 nM), inactive: -0.17 (compound concentration: 2 uM) and inactive: -0.0223 (compound concentration: 10 uM).
The corresponding values for `Cc1ccc(C(=O)OCCn2ccnc2)cc1` are inactive: 0.627, inactive: 1.14 and inactive: -0.661.
Turning to `COc1ccc(/C=C/C(=O)Nc2cccc3ccccc23)cc1OC`, the TEAD-luciferase reporter activity (compound concentration: 200 nM) was inactive: -0.105, the TEAD-luciferase reporter activity (compound concentration: 2 uM) is inactive: -1.11 and the TEAD-luciferase reporter activity (compound concentration: 10 uM) was inactive: 0.7.
On the same counts, the results for `NS(=O)(=O)c1ccc(NCc2ccccc2)cc1` are inactive: -1.23, inactive: -0.715 and inactive: 0.95.
On the same counts, the results for `CC(CO)(CO)NCc1cc2c3ccccc3ccc2c2ccccc12` are inactive: -0.288, inactive: -0.31 and inactive: 1.04.
On the same counts, the results for `CC(C)(C)c1ccc(S(=O)(=O)Nc2ccc(Cl)cc2C(=O)c2cc[n+]([O-])cc2)cc1` [Vercirnon sodium] are inactive: -1.08, inactive: -1.44 and inactive: -0.722.
In the case of `CN1Cc2c(Cl)cc(Cl)cc2C(c2cccc(S(=O)(=O)NCCOCCOCCNC(=O)NCCCCNC(=O)NCCOCCOCCNS(=O)(=O)c3cccc(C4CN(C)Cc5c(Cl)cc(Cl)cc54)c3)c2)C1` (stereo not given) [Tenapanor], the TEAD-luciferase reporter activity is, setting by setting: (compound concentration: 200 nM) inactive: -1.9; (compound concentration: 2 uM) inactive: -0.212; (compound concentration: 10 uM) inactive: -0.577.
